Data published in paper PMC9388863, “Congeners-Specific Intestinal Absorption Of Microcystins In An In Vitro 3D Human Intestinal Epithelium: The Role Of Influx/Efflux Transporters” (Frontiers in Toxicology, 2022).

By UniProt entry, the sequences of proteins in these tests, tags left out. Where a name states a change or a piece, a line headed by the entry shows the natural chain unless it says otherwise.
UniProt Q92887: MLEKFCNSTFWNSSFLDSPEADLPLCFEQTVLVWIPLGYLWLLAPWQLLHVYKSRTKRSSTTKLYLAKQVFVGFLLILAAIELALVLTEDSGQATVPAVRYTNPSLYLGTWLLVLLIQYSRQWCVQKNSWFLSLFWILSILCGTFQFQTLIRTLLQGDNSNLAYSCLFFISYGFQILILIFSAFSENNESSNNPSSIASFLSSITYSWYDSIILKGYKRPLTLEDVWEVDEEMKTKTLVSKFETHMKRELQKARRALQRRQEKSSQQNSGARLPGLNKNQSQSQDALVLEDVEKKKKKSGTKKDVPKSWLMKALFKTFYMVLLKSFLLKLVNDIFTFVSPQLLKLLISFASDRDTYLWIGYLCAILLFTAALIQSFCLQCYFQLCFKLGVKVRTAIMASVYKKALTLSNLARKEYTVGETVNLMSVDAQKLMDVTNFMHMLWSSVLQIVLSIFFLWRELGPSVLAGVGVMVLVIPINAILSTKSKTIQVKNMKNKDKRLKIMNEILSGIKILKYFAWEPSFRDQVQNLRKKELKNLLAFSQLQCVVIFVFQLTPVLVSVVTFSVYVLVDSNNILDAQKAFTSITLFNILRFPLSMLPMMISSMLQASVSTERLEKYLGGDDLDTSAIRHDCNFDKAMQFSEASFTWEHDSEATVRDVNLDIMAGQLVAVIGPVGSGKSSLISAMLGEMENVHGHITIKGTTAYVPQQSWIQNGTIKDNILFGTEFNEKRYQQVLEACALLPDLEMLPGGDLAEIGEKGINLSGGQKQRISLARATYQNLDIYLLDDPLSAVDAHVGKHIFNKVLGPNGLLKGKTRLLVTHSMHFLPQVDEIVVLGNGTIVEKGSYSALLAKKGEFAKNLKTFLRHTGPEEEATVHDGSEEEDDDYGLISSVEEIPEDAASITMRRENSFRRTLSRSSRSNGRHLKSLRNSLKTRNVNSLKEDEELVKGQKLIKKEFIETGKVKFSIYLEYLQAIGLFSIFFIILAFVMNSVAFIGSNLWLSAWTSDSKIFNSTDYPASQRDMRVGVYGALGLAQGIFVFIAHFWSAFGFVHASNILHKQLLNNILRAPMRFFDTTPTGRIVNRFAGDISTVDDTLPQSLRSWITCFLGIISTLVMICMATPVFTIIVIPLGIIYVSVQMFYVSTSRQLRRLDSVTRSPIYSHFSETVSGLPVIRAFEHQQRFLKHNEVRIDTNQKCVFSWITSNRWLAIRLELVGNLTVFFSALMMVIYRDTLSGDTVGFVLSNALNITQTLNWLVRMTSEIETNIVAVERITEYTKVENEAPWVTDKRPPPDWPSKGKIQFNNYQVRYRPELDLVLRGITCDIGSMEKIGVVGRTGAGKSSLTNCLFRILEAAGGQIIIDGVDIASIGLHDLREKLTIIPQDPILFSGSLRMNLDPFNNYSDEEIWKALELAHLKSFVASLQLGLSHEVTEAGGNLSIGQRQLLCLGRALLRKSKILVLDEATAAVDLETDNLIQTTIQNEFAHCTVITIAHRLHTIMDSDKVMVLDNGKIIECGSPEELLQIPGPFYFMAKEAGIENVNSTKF
UniProt O94956: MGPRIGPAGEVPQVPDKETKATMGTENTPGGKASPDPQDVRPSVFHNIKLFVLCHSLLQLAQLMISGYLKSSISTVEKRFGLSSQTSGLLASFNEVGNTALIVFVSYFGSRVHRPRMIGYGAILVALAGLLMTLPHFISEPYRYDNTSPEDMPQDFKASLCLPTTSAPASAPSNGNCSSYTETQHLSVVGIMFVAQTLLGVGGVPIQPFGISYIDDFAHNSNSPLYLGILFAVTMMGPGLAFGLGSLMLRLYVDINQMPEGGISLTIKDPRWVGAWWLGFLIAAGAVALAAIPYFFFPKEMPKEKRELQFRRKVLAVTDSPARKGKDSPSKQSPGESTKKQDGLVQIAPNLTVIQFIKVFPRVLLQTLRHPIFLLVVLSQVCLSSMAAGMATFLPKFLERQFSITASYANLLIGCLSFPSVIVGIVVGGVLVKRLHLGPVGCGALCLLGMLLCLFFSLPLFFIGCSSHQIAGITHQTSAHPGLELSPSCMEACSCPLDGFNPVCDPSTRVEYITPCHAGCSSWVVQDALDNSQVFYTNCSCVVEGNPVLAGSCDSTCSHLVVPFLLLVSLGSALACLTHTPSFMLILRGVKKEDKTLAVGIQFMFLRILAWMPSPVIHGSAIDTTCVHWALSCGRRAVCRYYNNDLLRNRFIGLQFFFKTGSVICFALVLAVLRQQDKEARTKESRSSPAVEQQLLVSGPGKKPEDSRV

Tests used:
MRP2 = MRP2 (Homo sapiens, UniProt Q92887)
OATP 2B1 = OATP 2B1 (Homo sapiens, UniProt O94956)

For `CC(C)c1c(C(=O)Nc2ccccc2)c(-c2ccccc2)c(-c2ccc(F)cc2)n1CC[C@@H](O)C[C@@H](O)CC(=O)O` [Atorvastatin, reference compound], the “effect of benzbromarone on probe substrate recovered at the BL compartment” value (MRP2) was “increase in the amount of substrates recovered at the BL compartment” and the “effect of cyclosporin on probe substrate absorption” value (OATP 2B1) was “increase in the absorption”.
